Measured values published in PubChem BioAssay AID504842 (National Center for Advancing Translational Sciences (NCATS), 2011).
The whole screen tested about 330,000 compounds, of which about 100 (0.03%) were called active. Inconclusive results, whose numbers are uncertain, are shown with a selection of clear calls. Calls come from the whole dose curve; as a rule, active = well fitted inhibition curve with a large enough effect; inconclusive = small, poorly fitted or top-dose-only effect; inactive = flat fitted curve, though single readings scatter. Where the call is inconclusive, the potency comes from a doubtful curve fit.
% is set by controls: 0 for no effect and ±100 for the full control effect; potency is the fitted concentration of half-maximal effect.
Note: nearly all actives have a fitted effect of over 80% in size.
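Throughout, for potency: enzyme at 25 nM with ATP substrate at 10 µM during the reaction.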

What follows are compounds tested on Chaperonin Mm-Cpn (Methanococcus maripaludis) (assay: Inhibitors of TCP-1 ring complex (TRiC) of Methanococcus maripaludis (MmCpn): qHTS). Settings: purified Mm-Cpn ATPase, ADP Transcreener TR-FRET; activity, negative = inhibition: at the top concentration.
Method in brief: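 ATPase read-out: TR-FRET ADP immunoassay (anti-ADP Eu cryptate vs ADP-d2), ex 320 nm, em 590/665 nm; signal drops as ADP forms. Enzyme 25 nM, ATP 10 uM, 30 min at 37°C after 10 min compound preincubation.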
With `COC(=O)c1sc(NC(=S)NC(=O)c2ccccc2F)nc1C` the Potency was inconclusive: 112 µM [inhibitor, partial curve, poor fit].
For `COC(=O)[C@@H]1Cc2c([nH]c3ccccc23)C2CCC(=O)N21` (stereo not given in full), the Potency was inconclusive: 14.1 µM [inhibitor, single point].
With `COCC(=O)NNC(=O)c1ccc(OC)cc1` the Potency was inconclusive: 15.8 µM [inhibitor, single point].
In the case of `Cc1c(C(C)(C)O)[nH]c2cc(C(F)(F)F)ccc12`, the “activity, negative = inhibition” value was inactive: 0.673%.
`COc1ccc(-c2csc(NCc3ccco3)n2)cc1C` was tested, and the Potency was inconclusive: 100 µM [inhibitor, single point].
`CCOc1ccc(-c2ccc(SCC(=O)N3CCOCC3)nn2)cc1` was tested, and the Potency was inconclusive: 89.1 µM [inhibitor, single point].
In the case of `O=C1OCCN1C(=O)[C@H]1[C@H](c2ccccc2)C(c2ccccc2)=NN1c1ccc(Br)cc1`, the Potency was inconclusive: 141 µM [inhibitor, partial curve, poor fit].
`CCOC(=O)c1cccc(-c2c(-c3ccccc3)ncc3cc(OC)c(OC)cc23)c1` was tested, and the Potency was inconclusive: 316 µM [inhibitor, partial curve, poor fit].
`CN1CCN(S(=O)(=O)c2cc([N+](=O)[O-])ccc2N/N=C/c2ccc(Cl)cc2)CC1` was tested, and the Potency was inconclusive: 100 µM [inhibitor, single point].
In the case of `CCCCCCN1N=C(C)C(C(=O)c2ccc(Cl)cc2)C1=O` (stereo not given), the Potency was inconclusive: 100 µM [inhibitor, single point].
In the case of `CCOc1ncccc1C(=O)Nc1ccc(Cl)c(S(=O)(=O)N2CCCC2)c1`, the Potency was inconclusive: 79.4 µM [inhibitor, single point].
With `CN1CCN(C(=O)/C=C\C(=O)O)CC1` the Potency was inconclusive: 14.1 µM [inhibitor, single point].
`C/C(=N/NC(=O)c1ccoc1C)c1cccc(NC(=O)C2CC2)c1` was tested, and the Potency was inconclusive: 6.31 µM [inhibitor, single point].
With `CCn1cc(CN2CCC(C(=O)Nc3ccc(Oc4ccccc4F)cc3)CC2)c(C)n1` the Potency was inconclusive: 12.6 µM [inhibitor, single point].
With `O=C(CSc1nc(-c2cccs2)cc(C(F)(F)F)n1)NCCCn1ccnc1` the Potency was inconclusive: 200 µM [inhibitor, partial curve, poor fit].
In the case of `COc1ccc(C(=O)COC(=O)CCCN=C2NS(=O)(=O)c3ccccc32)c(OC)c1`, the Potency was inconclusive: 89.1 µM [inhibitor, single point].
With `CC(=N)c1c(O)c2ccccc2oc1=O` the Potency was inconclusive: 100 µM [inhibitor, single point].
In the case of `O=C(NCc1ccccc1Cl)C(=O)NCC(c1ccco1)N1CCOCC1` (stereo not given), the Potency was inconclusive: 100 µM [inhibitor, single point].
`COc1ccccc1C(CNC(=O)c1ccc(NS(=O)(=O)c2ccc3c(c2)OCCO3)cc1)N(C)C` (stereo not given) was tested, and the Potency was inconclusive: 63.1 µM [inhibitor, partial curve, poor fit].
With `CCOc1ccc(S(=O)(=O)Nc2cc(OC)c(OC)cc2C(=O)O)cc1` the Potency was inconclusive: 100 µM [inhibitor, single point].
With `O=C(CCNC(=O)C1CCN(S(=O)(=O)c2ccccc2)CC1)Nc1ccccc1` the Potency was inconclusive: 89.1 µM [inhibitor, single point].
`O=C(CN1C(=O)c2ccccc2S1(=O)=O)NCCSCc1cccc(Cl)c1` was tested, and the “activity, negative = inhibition” value was inactive: 4.52%.
`O=C(CCN1C(=O)C2CC=C(Cl)CC2C1=O)NC1CCCCC1` (stereo not given) was tested, and the Potency was inconclusive: 100 µM [inhibitor, partial curve, poor fit].
With `O=C(O)COc1c(F)c(F)c(C(F)(F)F)c(F)c1F` the “activity, negative = inhibition” value was inactive: 1.08%.
In the case of `COc1ccccc1NS(=O)(=O)c1cccc(NC(=O)c2sc3ccccc3c2Cl)c1`, the Potency was inconclusive: 141 µM [inhibitor, partial curve, poor fit].
For `COc1ccccc1N1CCN(CCN(C(=O)c2ccc(F)cc2)c2ccccn2)CC1`, the Potency was inconclusive: 12.6 µM [inhibitor, single point].
`C=CCn1c(C)c(/C=C/c2cc[n+](C)cc2)c2ccccc21` was tested, and the Potency was inconclusive: 63.1 µM [inhibitor, single point].
In the case of `Cc1ccc2oc(/N=C(\N)NC(=O)C3CC3)nc2c1`, the “activity, negative = inhibition” value was inactive: 3.31%.
For `Cc1oc2nc(SCC(=O)NCCCO)nc(N)c2c1C`, the Potency was inconclusive: 14.1 µM [inhibitor, single point].
In the case of `Cc1ccc(C(=O)N(C)c2nnc(-c3ccncc3)s2)cc1`, the Potency was inconclusive: 6.31 µM [inhibitor, single point].
In the case of `CC(C)Sc1nc(NCc2ccco2)c2c3c(sc2n1)COC(C)(C)C3`, the Potency was inconclusive: 200 µM [inhibitor, partial curve, poor fit].
In the case of `CCn1nnc(NC(=O)CSc2ccc(Cl)cc2)n1`, the Potency was inconclusive: 22.4 µM [inhibitor, single point].
`Cn1nc(C(=O)NNC(=O)c2ccc(Cl)cc2)ccc1=O` was tested, and the Potency was inconclusive: 25.1 µM [inhibitor, single point].
In the case of `Fc1ccc(C2=NN(c3ccccc3)C(c3ccco3)C2)cc1` (stereo not given), the “activity, negative = inhibition” value was inactive: -4.31%.
In the case of `Cn1ccc(C(=O)Nc2ccc(Br)cc2Br)n1`, the Potency was inconclusive: 22.4 µM [inhibitor, single point].
With `Cc1ccc(NC(=O)Cn2c(=O)c(C)nc3ccccc32)cc1` the Potency was inconclusive: 17.8 µM [inhibitor, single point].
`O=C(Nc1c(C(=O)N2CCOCC2)oc2ccccc12)c1cccc([N+](=O)[O-])c1` was tested, and the Potency was inconclusive: 100 µM [inhibitor, partial curve, poor fit].
With `CC(OC(=O)c1cccc(-n2cnnn2)c1)C(=O)Nc1cccc(Cl)c1` (stereo not given) the Potency was inconclusive: 89.1 µM [inhibitor, single point].
`CCOC(=O)c1c2ccccc2[n+]([O-])n1CCO` was tested, and the “activity, negative = inhibition” value was inactive: -4.86%.
With `S=C(NCCc1ccccc1)NN=C1CCCCCC1` the Potency was inconclusive: 2820 µM [inhibitor, partial curve, poor fit].
In the case of `CCOC(=O)C(C)Sc1nnc(CNC(=O)c2ccc(OC)cc2)n1C1CCCCC1` (stereo not given), the Potency was inconclusive: 100 µM [inhibitor, single point].
With `O=[N+]([O-])c1ccccc1OCCN1CCCC1` the Potency was inconclusive: 10 µM [inhibitor, single point].
In the case of `Cn1c2ccccc2c2c(C(=O)O)cn(C3CCCC3)c(=O)c21`, the Potency was inconclusive: 100 µM [inhibitor, single point].
`CCN1C(=O)[C@@H]2[C@@H](c3ccc(-c4ccc(Cl)c(Cl)c4)c(OC)c3)N3CCCC[C@@]3(C(=O)OC)[C@@H]2C1=O` was tested, and the Potency was inconclusive: 70.8 µM [inhibitor, single point].
In the case of `N#Cc1ccc(OCC(=O)NCC2(N3CCCCC3)CCCCC2)cc1`, the Potency was inconclusive: 100 µM [inhibitor, single point].
In the case of `CCOc1cc(/C=N/NC(=O)CN2CCCCC2)ccc1O`, the Potency was inconclusive: 56.2 µM [inhibitor, single point].
`O=[N+]([O-])c1nn(-c2ccc3c(c2)OCCO3)n(O)c1=NC1CCCCCC1` was tested, and the “activity, negative = inhibition” value was inactive: 2.03%.
With `Cc1cc(-c2cccs2)c2c(N)c(C(=O)c3ccc4c(c3)OCO4)sc2n1` the Potency was inconclusive: 100 µM [inhibitor, single point].
In the case of `O=C1OCCN1C(=O)[C@H]1[C@H](c2ccc(Cl)cc2)C(c2ccccc2)=NN1c1ccc(Br)cc1`, the Potency was inconclusive: 158 µM [inhibitor, partial curve, poor fit].
In the case of `CCOC(=O)c1ccc(N2C(=O)C3CC=C(C)CC3C2=O)cc1` (stereo not given), the “activity, negative = inhibition” value was inactive: 0.859%.
In the case of `COc1cc2c(c3oc(=O)cc(CC(=O)O)c13)CCC(C)(C)O2`, the Potency was inconclusive: 11.2 µM [inhibitor, single point].
With `COC(=O)c1ccccc1NC(=S)N(Cc1ccc2c(c1)OCO2)Cc1cc2ccc(C)cc2[nH]c1=O` the Potency was inconclusive: 100 µM [inhibitor, single point].
In the case of `Fc1ccc(CNc2ccc(N3CCN(Cc4ccccc4)CC3)cc2)cc1`, the “activity, negative = inhibition” value was inactive: 2.18%.
For `O=C(NCc1cccs1)c1cc(-c2ccccn2)nc2ccc(Br)cc12`, the Potency was inconclusive: 15.8 µM [inhibitor, single point].
`Cc1cccc(CCNc2nc3ccccc3n3nnnc23)c1` was tested, and the “activity, negative = inhibition” value was inactive: -2.09%.
For `O=C(c1ccccc1)c1ccc(C(=O)N2CCN(c3ccccc3Cl)CC2)cc1`, the “activity, negative = inhibition” value was inactive: 0.121%.
With `CCOC(=O)c1ccc(NC(=O)C2CCCN(c3cnccn3)C2)cc1` (stereo not given) the “activity, negative = inhibition” value was inactive: 0.523%.
In the case of `COc1ccc2c(c1)c(=O)c(C(=O)c1ccc(C)cc1)cn2CC(=O)Nc1ccc(F)cc1`, the Potency was inconclusive: 100 µM [inhibitor, single point].
In the case of `C=CCOc1cccc(C2C(C(=O)c3ccc(C)o3)=C(O)C(=O)N2c2nnc(C)s2)c1` (stereo not given), the Potency was inconclusive: 224 µM [inhibitor, partial curve, poor fit].
In the case of `CC(=O)Nc1ccc(SC(C)C(=O)NC(N)=O)cc1` (stereo not given), the “activity, negative = inhibition” value was inactive: -0.225%.
With `Cc1nc2c(cc(Oc3ccc(S(=O)(=O)N4CCOCC4)cn3)c3ccsc32)s1` the Potency was inconclusive: 100 µM [inhibitor, single point].
With `OC1(C#CCCN2CCCCC2)c2ccccc2-c2ccccc21` the Potency was inconclusive: 50.1 µM [inhibitor, partial curve, poor fit].
`CCC(=O)Nc1ccc(C(=O)COC(=O)CCN2C(=O)C3CC=CCC3C2=O)cc1` (stereo not given) was tested, and the Potency was inconclusive: 12.6 µM [inhibitor, partial curve, poor fit].
With `CCCOC(=O)c1ccc(O)c(OC)c1` the Potency was inconclusive: 22.4 µM [inhibitor, single point].
`C[C@]12c3[nH]c4cc(-c5ccco5)ccc4c3CCN1C(=O)[C@@H](CC(=O)NCCN1CCOCC1)C[C@@H]2C(=O)N1CCOCC1` was tested, and the Potency was inconclusive: 100 µM [inhibitor, partial curve, poor fit].
